No constants are given. Whether binding was seen depends on the method and setting. Binding seen in cells or lysates may run through a third protein. These calls come from enrichment with a bait or labelling near it, and not all partners need be listed. Sequences can lack the tags named with a protein.
Target: T1, … (PI) fused to TurboID and 3xMyc (Arabidopsis), P48007
T1 chain: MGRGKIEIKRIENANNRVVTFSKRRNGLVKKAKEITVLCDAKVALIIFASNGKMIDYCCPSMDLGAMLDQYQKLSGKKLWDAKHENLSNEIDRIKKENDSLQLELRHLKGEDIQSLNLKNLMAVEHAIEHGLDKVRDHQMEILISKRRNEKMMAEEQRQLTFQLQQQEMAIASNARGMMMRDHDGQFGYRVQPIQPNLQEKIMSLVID
Assay: proximity labelling
Conditions: remark: other sources report otherwise

B1: APETALA3 (AP3) fused to GFP, P35632 1-232 (protein)
chain: MARGKIQIKRIENQTNRQVTYSKRRNGLFKKAHELTVLCDARVSIIMFSSSNKLHEYISPNTTTKEIVDLYQTISDVDVWATQYERMQETKRKLLETNRNLRTQIKQRLGECLDELDIQELRRLEDEMENTFKLVRERKFKSLGNQIETTKKKNKSQQDIQKNLIHELELRAEDPHYGLVDNGGDYDSVLGYQIEGSRAYALRFHQNHHHYYPNHGLHAPSASDIITFHLLE
modifications: here or on the partner: biotinylated by PI-TurboID (sites not given); likely auto-biotinylated (sites not given)
binding: binds
